Our source for the binding values is patent US20240092907A1.

By UniProt entry, the sequences of proteins in these tests, tags left out. Residues count along the entry.
UniProt Q9H7M9, residues 33-194: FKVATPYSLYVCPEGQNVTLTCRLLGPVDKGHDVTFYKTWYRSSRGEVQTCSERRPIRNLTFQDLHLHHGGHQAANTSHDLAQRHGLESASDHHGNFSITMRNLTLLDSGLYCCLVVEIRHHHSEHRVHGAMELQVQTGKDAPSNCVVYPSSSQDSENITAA

The target of the assay is T1, full length human PSGL-1 on heparan sulfate-deficient CHO cells (pGSD-677) (human) (UniProt Q14242).
T1 sequence: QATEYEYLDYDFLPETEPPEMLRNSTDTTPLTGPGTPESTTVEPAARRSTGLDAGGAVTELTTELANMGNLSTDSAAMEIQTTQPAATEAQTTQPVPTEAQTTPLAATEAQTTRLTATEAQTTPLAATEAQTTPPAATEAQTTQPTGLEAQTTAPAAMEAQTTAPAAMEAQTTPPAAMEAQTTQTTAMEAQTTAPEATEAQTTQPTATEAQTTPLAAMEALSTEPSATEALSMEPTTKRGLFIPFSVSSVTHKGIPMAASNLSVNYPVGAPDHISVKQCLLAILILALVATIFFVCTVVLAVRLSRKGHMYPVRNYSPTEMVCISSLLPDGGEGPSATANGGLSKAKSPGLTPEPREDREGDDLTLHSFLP
Nature of the assay: flow cytometry, VISTA multimer staining of heparan sulfate-deficient CHO cells transfected with human PSGL-1, pH 6.0. A general note: In flow cytometry, cells or beads pass a laser one at a time.

These are yes or no findings as the source states them, for the method shown. Some binding calls cover weakened binding; strength is not graded here.

Consider “recombinant hVISTA ECD multimer (monobiotinylated hVISTA ECD on PE-streptavidin dextramers) (from UniProt Q9H7M9 33-194) (receptor)”, for which the binding entry is listed as “binds”.
